According to PubChem BioAssay AID504834 (National Center for Advancing Translational Sciences (NCATS), 2011):
In all, about 320,000 compounds went through this assay and about 22,000 (6.9%) were called active. The inconclusive results got no clear call from the source; some entries with a clear call stand among them for comparison. Calls come from the whole dose curve; as a rule, active = well fitted inhibition curve with a large enough effect; inconclusive = small, poorly fitted or top-dose-only effect, or another doubt; inactive = no such curve, though single readings can be large or run the other way. Potencies beside an inconclusive call are fits to weak or partial responses and may not hold up.
Potency is the fitted concentration of half-maximal effect.

Assay: Primary qHTS for delayed death inhibitors of the malarial parasite plastid, 96 hour incubation
Conditions: P. falciparum luciferase reporter growth; series mostly up to 28.7 µM
In short: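 Cell-based qHTS: luciferase-tagged P. falciparum in erythrocytes (2% hematocrit, 0.05% parasitemia final) incubated with compounds for 96 hours, 37 C, 5% CO2; luciferase detection reagent then added and luminescence measured.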
For `COc1ccccc1OCCSc1ncnc2nc[nH]c12`, the Potency was active: 11.7 µM. With `CCC[C@H]1COCCS(=O)(=O)N1Cc1ccccc1F` the Potency was inconclusive: 0.0033 µM [inhibitor, full curve, poor fit]. With `O=C(/C=C/c1ccco1)NC(=S)Nc1ccccc1N1CCOCC1` the Potency was inconclusive: 18.5 µM [inhibitor, single point]. For `Cc1ccc(-n2ncc3c(N4CCC5(CC4)OCCO5)ncnc32)c(C)c1`, the Potency was active: 5.22 µM. With `COc1cccc(-c2ccc(NC(=O)C3CCCN(Cc4cc(C)[nH]n4)C3)cc2)c1` (stereo not given) the Potency was “inactive”. In the case of `CC(=O)N=c1c(C#N)cc2c(=O)n3cccc(C)c3nc2n1Cc1ccco1`, the Potency is reported as inconclusive: 1.47 µM [inhibitor, full curve]. With `COc1cc2c(cc1OC)C1(C)N(CC2)C(C(C)=O)=NN1c1ccc(Cl)cc1` (stereo not given) the Potency was inconclusive: 20.8 µM [inhibitor, partial curve, poor fit]. In the case of `Cc1c(Nc2nc(-c3ccc(Cl)cc3)cs2)c(=O)n(-c2ccccc2)n1C`, the Potency is reported as active: 13.1 µM. In the case of `Cc1nc2sccn2c(=O)c1S(=O)(=O)Nc1ccc(N2CCN(S(C)(=O)=O)CC2)cc1`, the Potency is reported as inconclusive: 18.5 µM [inhibitor, single point]. For `Cc1cccc(C2Nc3ccccc3C(=O)N2c2ccc(F)cc2)n1` (stereo not given), the Potency was inconclusive: 18.5 µM [inhibitor, partial curve, poor fit]. With `COc1cc(/C=N/c2oc(-c3ccccc3)cc2C#N)ccc1O` the Potency was “inactive”. With `O=C(Nc1ccc(N2CCCCC2)cc1)c1cccnc1` the Potency was inconclusive: 7.38 µM [inhibitor, partial curve, poor fit]. With `Fc1ccc(Oc2nc(-c3ccccn3)nc3ccccc23)cc1` the Potency was active: 4.65 µM. For `Cc1nc2ccc(NC(=O)CCS(=O)(=O)c3ccccc3)cc2s1`, the Potency was inconclusive: 0.0029 µM [inhibitor, full curve, poor fit]. In the case of `O=C(NC1CCCCCC1)c1ccc(S(=O)(=O)NCc2ccco2)cc1`, the Potency is reported as inconclusive: 0.233 µM [inhibitor, full curve, poor fit]. In the case of `COc1cc(CN2CCC(C(=O)NCC(C)(C)CN(C)C)CC2)ccc1OCc1ccccc1`, the Potency is reported as inconclusive: 10.4 µM [inhibitor, single point]. In the case of `Cc1cc(NS(=O)(=O)c2ccc(NC(=S)NC(=O)c3cccc(S(=O)(=O)N(C)C)c3)cc2)no1`, the Potency is reported as “inactive”. With `CCc1ccc(NC(=O)Cn2nc(C(F)(F)F)c3c2CCC3)cc1` the Potency was “inactive”. With `O=C(NNc1nc2ccccc2s1)Nc1ccc(F)cc1` the Potency was “inactive”. In the case of `Cc1cc(CNC(=S)Nc2ccc(S(=O)(=O)Nc3ncccn3)cc2)nn1C`, the Potency is reported as inconclusive: 11.7 µM [inhibitor, single point]. In the case of `Cc1nc2cc(-c3ccc(Br)cc3)[nH]n2c(=O)c1Cl`, the Potency is reported as active: 9.28 µM. With `COc1cc2nc(CN(C)Cc3ccc(F)cc3)[nH]c(=O)c2cc1OC` the Potency was inconclusive: 10.4 µM [inhibitor, single point]. With `CC(C)CCn1c(SCC(=O)Nc2ccccc2C(F)(F)F)nc2nccnc2c1=O` the Potency was inconclusive: 4.65 µM [inhibitor, partial curve]. For `CCC1(c2ccccc2)NC(=O)N(CC(=O)Nc2cccnc2Cl)C1=O` (stereo not given), the Potency was inconclusive: 14.7 µM [inhibitor, partial curve, poor fit]. With `COc1ccc2cc3c(N)nn(C(=O)c4ccc(F)cc4)c3nc2c1` the Potency was inconclusive: 4.15 µM [inhibitor, partial curve]. In the case of `CC1=NC(=O)C(N=Nc2ccccc2)N1c1ccccc1` (stereo not given), the Potency is reported as “inactive”. For `CCN(CC)c1ccc(NC(=O)CN(C)Cc2cccs2)cc1`, the Potency was “inactive”. In the case of `CCC(CC)C(=O)Nc1ccc([N+](=O)[O-])cn1`, the Potency is reported as inconclusive: 5.22 µM [inhibitor, single point]. With `COc1ccccc1CNC(=O)[C@H](C)N1C(=O)N2CCc3c([nH]c4ccccc34)[C@@]2(C)C1=O` the Potency was inconclusive: 18.5 µM [inhibitor, single point]. In the case of `O=C(NCC(=O)N(c1ccccc1F)C(C(=O)NCC1CCCO1)c1ccccc1)c1ccco1` (stereo not given), the Potency is reported as inconclusive: 18.5 µM [inhibitor, single point]. In the case of `COc1cccc(NC(=O)CSc2nnc(-c3ccc(C)cc3)o2)c1`, the Potency is reported as inconclusive: 7.38 µM [inhibitor, partial curve]. With `COc1ccccc1NC(=O)COc1ccc(/C=N/NC(=O)CSCc2ccc(Cl)cc2)cc1` the Potency was “inactive”. With `CSc1ccccc1OC1CCN(Cc2ccccc2)CC1` the Potency was “inactive”. For `C/C=C/Cn1c(N(C)Cc2ccccc2)nc2c1c(=O)[nH]c(=O)n2C`, the Potency was active: 8.28 µM. In the case of `O=C(CNC(=O)c1cccs1)N=Nc1c(O)[nH]c2ccc([N+](=O)[O-])cc12`, the Potency is reported as “inactive”. With `CC(C)(C)c1cc(OC(=O)c2ccncc2)ccc1O` the Potency was inconclusive: 13.1 µM [inhibitor, single point]. With `Cn1cccc1CC(=O)NNC(=S)NC(=O)c1ccc(F)cc1` the Potency was inconclusive: 18.5 µM [inhibitor, single point]. For `COc1ccc(NC(=O)c2ccccc2N(Cc2ccccc2)S(C)(=O)=O)cc1OC`, the Potency was inconclusive: 2.08 µM [inhibitor, partial curve, poor fit]. In the case of `Cc1ccccc1N(C(=O)CCCC(=O)Nc1ccccn1)C(C(=O)NC1CCCC1)c1ccc(O)cc1` (stereo not given), the Potency is reported as inconclusive: 14.7 µM [inhibitor, single point]. For `CCCCOc1ccc(CSC(=N)N)cc1Cl`, the Potency was inconclusive: 16.5 µM [inhibitor, single point]. For `O=C(NC1CCOCC1)C1CCC(=O)N(Cc2cccc(C(F)(F)F)c2)C1` (stereo not given), the Potency was “inactive”. In the case of `Cc1cccc(OCC(=O)N2CCC3(CC2)CC(=O)c2ccccc2O3)c1`, the Potency is reported as inconclusive: 18.5 µM [inhibitor, single point]. With `Cn1c(Cn2c(=O)sc3ccccc32)nnc1SCC(=O)N1CCCc2ccccc21` the Potency was inconclusive: 4.15 µM [inhibitor, single point]. In the case of `O=C(/C=C/c1ccco1)NCc1ccco1`, the Potency is reported as “inactive”. With `COCC(C)n1c(C)cc(C(=O)COc2ccc(N(C)S(=O)(=O)c3ccc(NC(C)=O)cc3)cc2)c1C` (stereo not given) the Potency was active: 1.31 µM.
